PubChem BioAssay AID1671195, Yale University, 2021
Shown is a random part of about 22,000 reagents. About 1,510 of all reagents (6.9%) were called active. 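Active includes knockdowns raising or lowering LDL uptake; positive z-scores mean more uptake, negative mean less.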 Unmarked entries are inactive.

Test: 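Regulators of LDL receptor activity judged by labelled LDL uptake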 (primary screen)
System: human Huh7 hepatoma cells
Reagent: siRNA pool against human genes, 18 nM
Timing: about 2 to 2.5 days of knockdown, then 8 h LDL uptake
Treatment: DiI-labelled LDL at 30 µg/ml for 8 h, in lipoprotein-deficient serum medium
Read-out: 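Per-cell DiI-LDL intensity by automated imaging; well means scaled to the plate median and given as a robust z-score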
Scale: robust z-score: higher = more LDL uptake after knockdown
Rule for the call: 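Active when two or more replicates show a robust z-score above 2 or below -2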

What is on record for TASP1?
robust z-score, replicate 1: 1.6; robust z-score, replicate 2: 1.22; robust z-score, replicate 3: 1.65

With LZTS3, what does the deposit list?
robust z-score, replicate 1: 2.82; robust z-score, replicate 2: 0.701; robust z-score, replicate 3: 1.32

With FCHO1, what does the deposit list?
robust z-score, replicate 1: -2.03; robust z-score, replicate 2: -0.22; robust z-score, replicate 3: -1.64

With CSTPP1, what does the deposit list?
robust z-score, replicate 1: -0.0062; robust z-score, replicate 2: -0.412; robust z-score, replicate 3: -0.313

What did the screen give for UNC79?
robust z-score, replicate 1: -1.84; robust z-score, replicate 2: -2.18; robust z-score, replicate 3: 0.0668

For SESN2, what does the deposit list?
robust z-score, replicate 1: 0.624; robust z-score, replicate 2: 0.547; robust z-score, replicate 3: 0.434

For LOC441448 (retired record), how do the results read?
robust z-score, replicate 1: 1.2; robust z-score, replicate 2: 0.176; robust z-score, replicate 3: 0.679

With GUCA1A, what does the deposit list?
robust z-score, replicate 1: 0.149; robust z-score, replicate 2: 2.61; robust z-score, replicate 3: 0.152

Which result is listed for G6PD?
robust z-score, replicate 1: -0.229; robust z-score, replicate 2: -0.535; robust z-score, replicate 3: -0.662

How did the screen score LINC02817?
robust z-score, replicate 1: -0.807; robust z-score, replicate 2: -1.01; robust z-score, replicate 3: -0.984

How did the screen score ECI1?
robust z-score, replicate 1: 0.185; robust z-score, replicate 2: -0.647; robust z-score, replicate 3: 0.317

How did the screen score DCLRE1B?
robust z-score, replicate 1: -1.19; robust z-score, replicate 2: -0.934; robust z-score, replicate 3: -1.01

What is on record for LOC440451 (retired record)?
robust z-score, replicate 1: -0.267; robust z-score, replicate 2: 0.0769; robust z-score, replicate 3: -0.00267

With SLC45A4, what was measured?
robust z-score, replicate 1: -0.0915; robust z-score, replicate 2: -0.663; robust z-score, replicate 3: -0.416

For LINC01913, what does the deposit list?
robust z-score, replicate 1: 0.425; robust z-score, replicate 2: 0.541; robust z-score, replicate 3: 0.399

With TDP2, how do the results read?
robust z-score, replicate 1: 0.141; robust z-score, replicate 2: -0.407; robust z-score, replicate 3: -0.121
